Experimental findings from paper PMC5307796 are described below.

Results are given in words; binding and its absence hold for the method and conditions named. In cells and extracts the contact can be indirect. Some binding calls cover weakened binding; strength is not graded here.

Assay [1] concerns the target His-FLAG-huPS1 with a 15 amino acid deletion (PS1 del265-279) (human) (UniProt P49768). The assay is described as follows: pull-down; IMAC: His-PS1 captured on MagneHis Ni-Particles from 1% CHAPS lysates of transfected PC12 cells stimulated 15 min with 50 mM KCl; 20 mM imidazole; western blot for Syt1. (In general: A western blot detects proteins with antibodies after separation by electrophoresis.)

For assay [2] the target is unchanged. The assay can be described thus: FRET or BRET; antibody-based FLIM on fixed, immunostained PC12 cells (anti-FLAG and anti-Syt1, AF488 donor and Cy3 acceptor secondary antibodies) after 15 min 50 mM KCl.

Turning to “Synaptotagmin 1, endogenous in PC12 cells (from UniProt P21707 1-421)”, the binding result in assay [1] and in assay [2] was “binds” each time.
